From paper PMC8824903 come the findings set out here.

By UniProt entry, the sequences of proteins in these tests, tags left out.
UniProt P60484: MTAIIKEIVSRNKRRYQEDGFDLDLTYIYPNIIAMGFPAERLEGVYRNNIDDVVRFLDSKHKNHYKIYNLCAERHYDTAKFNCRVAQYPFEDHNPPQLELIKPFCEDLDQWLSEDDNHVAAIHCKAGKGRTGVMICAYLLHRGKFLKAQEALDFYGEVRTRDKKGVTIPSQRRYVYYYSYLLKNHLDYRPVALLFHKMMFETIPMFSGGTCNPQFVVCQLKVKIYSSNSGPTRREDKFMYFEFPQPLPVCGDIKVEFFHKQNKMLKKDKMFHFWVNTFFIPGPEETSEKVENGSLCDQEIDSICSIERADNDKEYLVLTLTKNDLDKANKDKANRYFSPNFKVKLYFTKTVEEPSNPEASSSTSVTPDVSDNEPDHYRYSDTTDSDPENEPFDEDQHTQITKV

The assay addresses FLAG-PTEN (UniProt P60484). The assay can be described thus: co-IP; total protein from oe-PTEN or oe-NC cells incubated with Anti-Flag M2 Affinity Gel at 4 C overnight, washed with TBS; western blot for Flag and TOB1. (In general: A western blot detects proteins with antibodies after separation by electrophoresis.)

Results are given in words; binding and its absence hold for the method and conditions named. In cells and extracts the contact can be indirect. Some binding calls cover weakened binding; strength is not graded here.

B1: transducer of ERBB2.1 (TOB1) (protein, UniProt P50616 1-345)
chain: MQLEIQVALNFIISYLYNKLPRRRVNIFGEELERLLKKKYEGHWYPEKPYKGSGFRCIHIGEKVDPVIEQASKESGLDIDDVRGNLPQDLSVWIDPFEVSYQIGEKGPVKVLYVDDNNENGCELDKEIKNSFNPEAQVFMPISDPASSVSSSPSPPFGHSAAVSPTFMPRSTQPLTFTTATFAATKFGSTKMKNSGRSNKVARTSPINLGLNVNDLLKQKAISSSMHSLYGLGLGSQQQPQQQQQPAQPPPPPPPPQQQQQQKTSALSPNAKEFIFPNMQGQGSSTNGMFPGDSPLNLSPLQYSNAFDVFAAYGGLNEKSFVDGLNFSLNNMQYSNQQFQPVMAN
B1: the binding entry is on record as “binds”.
